The list shows a part of the results. The main result of the screen is listed elsewhere. These columns were measured beside it and carry no call. The list favours compounds with an active or inconclusive main result. The note in brackets gives the kind of curve behind each potency; many fits are weak.
Test: qHTS Assay to Find Inhibitors of Chronic Active B-Cell Receptor Signaling
Settings: ABC-DLBCL IkBa-CBG/CBR reporter, luminescence ratio (green luciferase fused to IkBa over red control in TMD8 lymphoma cells), 4 h
In short: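 Concentration-response series (up to 46 uM) were applied to TMD8 dual-reporter cells for 4 h at 37C with doxycycline. Green/red ratio, after filter-overlap correction, defined %Activity; red signal alone was normalised to basal cells and zero luminescence.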

[1] = measured here: CBR red luminescence, cell number

Compound	AC50 [1]	AC50 (measured here: IkBa-CBG green luminescence)
COc1ccc(-c2csc(NC3OC(=O)c4ccccc43)n2)cc1 (stereo not drawn)	10 µM [falling, partial curve, poor fit]	
O=C(CN1N=C(c2ccccc2)CCC1=O)NCc1ccccc1	0.1 µM [rising, full curve, poor fit]	
O=C(NCc1ccc2c(c1)CCN2C(=O)c1ccc(F)cc1)c1ccco1	8.91 µM [falling, full curve, poor fit]	
O=[N+]([O-])c1cc(/C=N/OCc2c(Cl)cccc2Cl)ccc1N1CCOCC1	9.2 µM [rising, partial curve]	
COc1cc(/C=C(\C#N)C(=O)Nc2ccc(SC(F)F)cc2)cc(OC)c1OC	10.3 µM [falling, partial curve]	
COc1ccc(CNCc2cc(C)c(OC)cc2C)c(OC)c1	35.5 µM [falling, single point]	
Cc1ccc(C(=O)O/N=C(\N)c2ccccn2)c(C)c1	0.794 µM [falling, full curve]	
O=C(Nc1ccc2oc(-c3ccc4ccccc4c3)nc2c1)c1ccc2c(c1)OCCO2	3.55 µM [rising, partial curve, poor fit]	
CCCC(O)(CCC)C(=O)NN(C(=O)CCl)c1ccccc1		29.1 µM [rising, partial curve, poor fit]
O=C(Nc1ccc(Cl)c(Cl)c1)c1cccnc1	22.4 µM [rising, partial curve, poor fit]	
NS(=O)(=O)c1ccc(CCNC(=O)Cc2ccc(S(=O)(=O)N3CCCC3)s2)cc1	6.31 µM [rising, partial curve, poor fit]	
O=C(NC1=NCCS1)c1cc2ccccc2o1	14.1 µM [falling, partial curve]	
COCCN(CCOC)C(=O)c1ccc(SCc2ccc(C)cc2)c([N+](=O)[O-])c1	15.8 µM [falling, partial curve]	
COc1ccc(CNC(=O)C2CCN(S(=O)(=O)N3CCC(C)CC3)CC2)c(OC)c1	0.708 µM [rising, partial curve, poor fit]	
Cc1ccc(CNC(=O)CCC(=O)c2cccs2)cc1	29.1 µM [rising, single point]	
CC(Sc1nncn1C)C(=O)Nc1nnc(-c2ccccc2)s1 (stereo not drawn)	29.1 µM [falling, single point]	
CCCCN1C(=O)c2ccc(C(=O)NC3(C)CCS(=O)(=O)C3)cc2C1=O (stereo not drawn)	2.91 µM [rising, partial curve, poor fit]	
CCNc1ccc(C(=O)OC(C(=O)NC(N)=O)C(C)C)cc1[N+](=O)[O-] (stereo not drawn)	15.8 µM [rising, partial curve, poor fit]	

In another format: results already given

| Compound | AC50 [1] | AC50 (measured here: IkBa-CBG green luminescence) |
| --- | --- | --- |
| COc1ccc(CNCc2cc(C)c(OC)cc2C)c(OC)c1 | 35.5 µM [falling, single point] |  |
| Cc1ccc(C(=O)O/N=C(\N)c2ccccn2)c(C)c1 | 0.794 µM [falling, full curve] |  |
| O=C(Nc1ccc2oc(-c3ccc4ccccc4c3)nc2c1)c1ccc2c(c1)OCCO2 | 3.55 µM [rising, partial curve, poor fit] |  |
| CCCC(O)(CCC)C(=O)NN(C(=O)CCl)c1ccccc1 |  | 29.1 µM [rising, partial curve, poor fit] |
| O=C(Nc1ccc(Cl)c(Cl)c1)c1cccnc1 | 22.4 µM [rising, partial curve, poor fit] |  |
